The record followed here is article PMC11231340, “Werner helicase interacting protein 1 contributes to G-quadruplex processing in human cells”.

In data set [1] the target is T1, GST-WRNIP1 (Homo sapiens) (UniProt Q96S55).
T1 sequence (looked up, limits assumed): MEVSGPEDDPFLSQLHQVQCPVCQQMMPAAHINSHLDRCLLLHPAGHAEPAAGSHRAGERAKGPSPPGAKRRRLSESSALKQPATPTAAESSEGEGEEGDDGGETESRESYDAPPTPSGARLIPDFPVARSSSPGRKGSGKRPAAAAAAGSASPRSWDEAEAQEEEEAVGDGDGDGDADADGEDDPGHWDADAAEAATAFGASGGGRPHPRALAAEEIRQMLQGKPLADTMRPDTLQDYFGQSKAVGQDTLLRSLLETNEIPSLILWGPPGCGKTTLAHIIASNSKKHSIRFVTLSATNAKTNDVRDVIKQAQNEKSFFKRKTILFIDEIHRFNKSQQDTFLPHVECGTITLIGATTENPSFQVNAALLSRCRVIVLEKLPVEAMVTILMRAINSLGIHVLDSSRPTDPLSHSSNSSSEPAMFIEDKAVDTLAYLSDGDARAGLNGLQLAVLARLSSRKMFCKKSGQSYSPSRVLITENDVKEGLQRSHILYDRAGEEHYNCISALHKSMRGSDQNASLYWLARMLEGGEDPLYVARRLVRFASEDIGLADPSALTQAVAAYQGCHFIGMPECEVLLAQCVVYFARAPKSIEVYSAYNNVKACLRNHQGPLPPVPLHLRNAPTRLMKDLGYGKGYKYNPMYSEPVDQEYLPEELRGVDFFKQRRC
In words: fluorescence anisotropy. The following applies: Anisotropy: 10 nM DNA, 50 mM Tris-HCl pH 7.5, 90 mM KCl, 5 mM EDTA, with or without 1 mM ATP and 1.25 mM MgCl2, 25 C, recombinant protein.

Data set [2] deals with T1, GST-WRNIP1 (Homo sapiens). In words: competitive EMSA. The following applies: EMSA: 50 nM DNA, 50 mM Tris-HCl pH 7.5, 150 mM KCl, 15 min 25 C, 6% native gel, DNA folded in 25 mM Tris-HCl pH 7.5, 50 mM KCl, recombinant protein, label: 5' FITC (anisotropy). (A gel shift assay detects complexes by their altered migration in electrophoresis.)
Setting [3] is: label: 5' FITC (anisotropy), 5' Cy3 (EMSA), single-stranded DNA.
The mark [4] stands for this setting: label: 5' FITC (anisotropy), 5' Cy3 (EMSA) on strand 1.

Construct, isoform or probe ends are uncertain for at least one entry. For some assays here: The comparison behind a weaker result is the experiment's own reference, which may not be listed here. Protein sequences can lack the tags named with them.

By Kd is commonly meant the concentration at which binding is half-saturated. Turning to “TGAGTGTGAGTGGTGTGAGAGCGGCGGCGGCTGGCGCGAGGC [GC-rich control]”, the Kd in data set [1] (label: 5' FITC, single-stranded DNA) is greater than 5 µM.
“AAGCCTTATCTGTAAGTGTATGTCAATGCGTCTGCGGCTGGCTCGAGGC [CEB cont. ss]”: the Kd in data set [1] (setting [3]) is greater than 5 µM. Besides, the binding result in data set [2] (with FITC CEB G4 ss, 5' Cy3 (EMSA), single-stranded DNA) is given as “binds more weakly”.
Consider “GTGAGATGTTGACCATGGGTGCGTCTGCGGCTGGCTCGAGGC / TTTGCCTCGAGCCAGCCGCAGACG [MYC control partial duplex]”, for which, in data set [1] (setting [4]), the Kd was greater than 5 µM. For the same sequence, the binding result in data set [2] (with FITC MYC G4 partial duplex, 5' Cy3 (EMSA) on strand 1) is recorded as “binds more weakly”.
“AAGCCTTATCTGTAAGTGTATGTCAATGCGTCTGCGGCTGGCTCGAGGC / TTTGCCTCGAGCCAGCCGCAGACG [CEB control partial duplex]”: the dissociation constant (Kd) in data set [1] (setting [4]) was greater than 5 µM. Further, in data set [2] (with FITC CEB G4 partial duplex, 5' Cy3 (EMSA) on strand 1), the binding result is “binds more weakly”.
Take “GTGAGATGTTGACCATGGGTGCGTCTGCGGCTGGCTCGAGGC [MYC cont. ss]”: the Kd is greater than 3 µM in data set [1] (1 mM ATP, label: 5' FITC (anisotropy), 5' Cy3 (EMSA), single-stranded DNA); greater than 5 µM in data set [1] (setting [3]); greater than 3 µM in data set [1] (no ATP (ATP comparison series), label: 5' FITC (anisotropy), 5' Cy3 (EMSA), single-stranded DNA). The binding result in data set [2] (with FITC MYC G4 ss, 5' Cy3 (EMSA), single-stranded DNA) is “binds more weakly”.
